# Results as given in article PMC7914255.
# No constants are given. Whether binding was seen depends on the method and setting. For some of these results: In cells and extracts the contact can be indirect. Some binding calls cover weakened binding; strength is not graded here. For some of these results: Sequences can lack the tags named with a protein.
# T1: STING (endogenous, BMDM) (mouse (endogenous in BMDM)) (UniProt Q3TBT3)
# T1 sequence: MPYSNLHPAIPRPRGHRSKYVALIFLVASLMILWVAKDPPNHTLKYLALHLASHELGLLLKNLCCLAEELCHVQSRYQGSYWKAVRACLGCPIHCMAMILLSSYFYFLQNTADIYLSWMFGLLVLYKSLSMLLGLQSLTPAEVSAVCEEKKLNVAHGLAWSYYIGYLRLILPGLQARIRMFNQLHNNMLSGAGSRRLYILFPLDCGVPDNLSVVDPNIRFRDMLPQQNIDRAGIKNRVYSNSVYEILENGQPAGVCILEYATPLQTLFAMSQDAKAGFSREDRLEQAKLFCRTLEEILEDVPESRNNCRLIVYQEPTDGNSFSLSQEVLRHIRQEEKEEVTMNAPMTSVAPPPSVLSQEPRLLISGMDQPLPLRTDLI
# T2: MAVS (endogenous, BMDM) (mouse (endogenous in BMDM)) (UniProt Q8VCF0)
# T2 sequence: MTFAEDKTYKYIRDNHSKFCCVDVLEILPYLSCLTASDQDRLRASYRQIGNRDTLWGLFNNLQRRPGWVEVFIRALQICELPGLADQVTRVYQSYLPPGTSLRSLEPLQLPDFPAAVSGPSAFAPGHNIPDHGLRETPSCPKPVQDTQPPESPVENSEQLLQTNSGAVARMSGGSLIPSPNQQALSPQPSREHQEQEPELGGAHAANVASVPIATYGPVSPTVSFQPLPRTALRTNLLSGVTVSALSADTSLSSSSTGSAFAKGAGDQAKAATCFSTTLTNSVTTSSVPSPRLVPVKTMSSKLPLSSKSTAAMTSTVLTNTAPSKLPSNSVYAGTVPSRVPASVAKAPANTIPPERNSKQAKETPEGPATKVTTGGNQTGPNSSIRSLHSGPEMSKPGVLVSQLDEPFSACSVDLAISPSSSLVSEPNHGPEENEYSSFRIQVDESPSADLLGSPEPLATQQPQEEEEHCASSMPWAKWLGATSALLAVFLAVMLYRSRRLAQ
# T3: TRIM41 (endogenous, BMDM) (mouse (endogenous in BMDM)) (UniProt Q5NCC3)
# T3 sequence: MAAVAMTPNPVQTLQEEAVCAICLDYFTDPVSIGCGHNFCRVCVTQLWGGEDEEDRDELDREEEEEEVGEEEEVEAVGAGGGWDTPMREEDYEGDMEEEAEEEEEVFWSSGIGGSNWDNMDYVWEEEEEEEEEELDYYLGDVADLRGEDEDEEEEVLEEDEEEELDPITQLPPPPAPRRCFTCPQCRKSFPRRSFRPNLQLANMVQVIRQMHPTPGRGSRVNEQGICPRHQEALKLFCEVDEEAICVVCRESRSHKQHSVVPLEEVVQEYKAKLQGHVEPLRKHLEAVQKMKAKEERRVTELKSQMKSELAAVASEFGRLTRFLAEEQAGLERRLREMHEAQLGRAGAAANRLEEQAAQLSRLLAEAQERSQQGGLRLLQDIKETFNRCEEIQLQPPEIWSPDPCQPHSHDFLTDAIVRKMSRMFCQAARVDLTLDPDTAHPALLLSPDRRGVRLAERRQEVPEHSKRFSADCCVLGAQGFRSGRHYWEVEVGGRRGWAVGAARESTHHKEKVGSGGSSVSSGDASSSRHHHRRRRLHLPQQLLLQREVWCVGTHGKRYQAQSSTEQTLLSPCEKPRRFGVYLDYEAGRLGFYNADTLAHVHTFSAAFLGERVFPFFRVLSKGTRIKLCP
# T4: GST-TRIM41 (mouse) (UniProt Q5NCC3)
# T4 sequence: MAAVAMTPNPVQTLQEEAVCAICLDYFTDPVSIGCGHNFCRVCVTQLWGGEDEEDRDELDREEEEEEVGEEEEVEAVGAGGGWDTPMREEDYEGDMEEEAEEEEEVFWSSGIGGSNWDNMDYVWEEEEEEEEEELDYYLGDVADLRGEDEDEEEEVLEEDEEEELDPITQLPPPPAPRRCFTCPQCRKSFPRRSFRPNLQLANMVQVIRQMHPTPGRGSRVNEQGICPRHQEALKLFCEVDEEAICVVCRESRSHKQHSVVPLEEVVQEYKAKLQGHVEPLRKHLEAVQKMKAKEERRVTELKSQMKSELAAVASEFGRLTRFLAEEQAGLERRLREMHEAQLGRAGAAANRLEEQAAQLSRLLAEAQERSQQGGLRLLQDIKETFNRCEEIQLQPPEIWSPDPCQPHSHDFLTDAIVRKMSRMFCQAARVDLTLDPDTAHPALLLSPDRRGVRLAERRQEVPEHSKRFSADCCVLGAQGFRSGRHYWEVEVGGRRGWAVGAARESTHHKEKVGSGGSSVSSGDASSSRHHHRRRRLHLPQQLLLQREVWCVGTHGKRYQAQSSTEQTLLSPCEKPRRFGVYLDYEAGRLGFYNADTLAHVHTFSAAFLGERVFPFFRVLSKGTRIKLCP
# T5: Flag-tagged TRIM41 (full length) (mouse) (UniProt Q5NCC3)
# T5 sequence: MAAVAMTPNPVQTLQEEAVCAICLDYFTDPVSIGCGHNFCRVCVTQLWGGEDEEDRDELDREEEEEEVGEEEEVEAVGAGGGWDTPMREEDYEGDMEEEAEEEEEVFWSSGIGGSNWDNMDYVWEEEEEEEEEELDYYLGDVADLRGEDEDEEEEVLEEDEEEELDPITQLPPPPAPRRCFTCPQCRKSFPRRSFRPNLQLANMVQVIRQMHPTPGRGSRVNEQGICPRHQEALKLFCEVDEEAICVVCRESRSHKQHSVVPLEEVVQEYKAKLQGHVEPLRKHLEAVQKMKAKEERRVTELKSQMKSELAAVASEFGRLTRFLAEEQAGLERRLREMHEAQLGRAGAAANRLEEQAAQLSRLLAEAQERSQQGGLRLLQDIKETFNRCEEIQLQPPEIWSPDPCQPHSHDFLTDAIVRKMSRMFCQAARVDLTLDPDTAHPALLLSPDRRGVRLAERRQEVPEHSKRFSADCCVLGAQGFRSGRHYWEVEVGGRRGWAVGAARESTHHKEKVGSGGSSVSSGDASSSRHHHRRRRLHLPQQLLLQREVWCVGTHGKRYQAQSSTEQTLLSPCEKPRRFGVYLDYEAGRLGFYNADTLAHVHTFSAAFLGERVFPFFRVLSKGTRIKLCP
# B1: CARD11 (endogenous, BMDM) (protein, UniProt Q8CIS0 1-1159)
# chain: MPGGGPAMDDYMETLKDEEEALWDNVECNRHMLSRYINPAKLTPYLRQCKVIDEQDEDEVLNAPMLPSKINRAGRLLDILHTKGQRGYVVFLESLEFYYPELYKLVTGKEPTRRFSTIVVEEGHEGLTHFLMNEVIKLQQQVKAKDLQRCELLAKSRQLEDEKKQLSLIRVELLTFQERYYKMKEERDSYNDELVKVKDDNYNLAMRYAQLSEEKNMAVMRSRDLQLEIDQLKHRLNKMEEECKLERNQSLKLKNDIENRPRKEQVLELERENEMLKTKIQELQSIIQAGKRSLPDSDKAILDILEHDRKEALEDRQELVNKIYNLQEEVRQAEELRDKYLEEKEDLELKCSTLGKDCEMYKHRMNTVMLQLEEVERERDQAFHSRDEAQTQYSQCLIEKDKYRKQIRELEEKNDEMRIEMVRREACIVNLESKLRRLSKDNGSLDQSLPRHLPATIISQNLGDTSPRTNGQEADDSSTSEESPEDSKYFLPYHPPRRRMNLKGIQLQRAKSPISMKQASEFQALMRTVKGHEEDFTDGSPSSSRSLPVTSSFSKMQPHRSRSSIMSITAEPPGNDSIVRRCKEDAPHRSTVEEDNDSCGFDALDLDDENHERYSFGPPSIHSSSSSHQSEGLDAYDLEQVNLMLRKFSLERPFRPSVTSGGHVRGTGPLVQHTTLNGDGLITQLTLLGGNARGSFIHSVKPGSLAERAGLREGHQLLLLEGCIRGERQSVPLDACTKEEARWTIQRCSGLITLHYKVNHEGYRKLLKEMEDGLITSGDSFYIRLNLNISSQLDACSMSLKCDDVVHVLDTMYQDRHEWLCARVDPFTDQDLDTGTIPSYSRAQQLLLVKLQRLVHRGNREEADSAHHTLRSLRNTLQPEEMLSTSDPRVSPRLSRASFFFGQLLQFVSRSENKYKRMNSNERVRIISGSPLGSLSRSSLDATKLLTEKHEELDPENELSRNLTLIPYSLVRAFHCERRRPVLFTPTMLAKTLVQKLLNSGGAMEFTICKSDIVTRDEFLRKQKTETIIYSREKNPNTFECIVPANIEAVAAKNKHCLLEAGIGCVRDLIKCKVYPIVLLIRVSEKNIKRFRKLLPRPETEEEFLRVCRLKEKELEALPCLYATVEAEMWSSVEELLRVLKDKIVEEQRKTIWVDEDQL
# B2: BCL10 (B cell lymphoma 10; endogenous, BMDM) (protein, UniProt Q9Z0H7 1-233)
# chain: MEAPAPSLTEEDLTEVKKDALENLRVYLCEKIIAERHFDHLRAKKILSREDTEEISCRTSSRKRAGKLLDYLQENPRGLDTLVESIRREKTQSFLIQKITDEVLKLRNIKLEHLKGLKCSSCEPFAAGATNNLSRCNSDESNLSEKQRASTVMYHPEGESSTAPFFSMASSLNLPVLEVGRTENSSFSSATLPRPGDPGAPPLPPDLRLEEGGSCGNSSEMFLPLRSRALSRQ
# B3: CARD9 (endogenous, BMDM) (protein, UniProt A2AIV8 1-536)
# chain: MSDYENDDECWSTLESFRVKLISVIDPSRITPYLRQCKVLNPDDEEQVLSDPNLVIRKRKVGVLLDILQRTGHKGYVAFLESLELYYPQLYRKVTGKEPARVFSMIIDASGESGLTQLLMTEVMKLQKKVQDLTALLSSKDDFIKELRVKDSLLRKHQERVQRLKEECELSSAELKRCKDENYELAMCLAHLSEEKGAALMRNRDLQLEVDRLRHSLMKAEDDCKVERKHTLKLRHAMEQRPSQELLWELQQEKDLLQARVQELQVSVQEGKLDRNSPYIQVLEEDWRQALQEHQKQVSTIFSLRKDLRQAETLRARCTEEKEMFELQCLALRKDAKMYKDRIEAILLQMEEVSIERDQAMASREELHAQCTQSFQDKDKLRKLVRELGEKADELQLQLFQTESRLLAAEGRLKQQQLDMLILSSDLEDSSPRNSQELSLPQDLEEDAQLSDKGVLADRESPEQPFMALNKEHLSLTHGMGPSSSEPPEKERRRLKESFENYRRKRALRKMQNSWRQGEGDRGNTTGSDNTDTEGS
# B4: Recombinant BCL10 (Abcam ab82241) (protein, UniProt O95999 1-233)
# chain: MEPTAPSLTEEDLTEVKKDALENLRVYLCEKIIAERHFDHLRAKKILSREDTEEISCRTSSRKRAGKLLDYLQENPKGLDTLVESIRREKTQNFLIQKITDEVLKLRNIKLEHLKGLKCSSCEPFPDGATNNLSRSNSDESNFSEKLRASTVMYHPEGESSTTPFFSTNSSLNLPVLEVGRTENTIFSSTTLPRPGDPGAPPLPPDLQLEEEGTCANSSEMFLPLRSRTVSRQ
# B5: Myc-tagged BCL10 (full length) (protein, UniProt Q9Z0H7 1-233)
# chain: MEAPAPSLTEEDLTEVKKDALENLRVYLCEKIIAERHFDHLRAKKILSREDTEEISCRTSSRKRAGKLLDYLQENPRGLDTLVESIRREKTQSFLIQKITDEVLKLRNIKLEHLKGLKCSSCEPFAAGATNNLSRCNSDESNLSEKQRASTVMYHPEGESSTAPFFSMASSLNLPVLEVGRTENSSFSSATLPRPGDPGAPPLPPDLRLEEGGSCGNSSEMFLPLRSRALSRQ
# B6: Recombinant CARD9 (Abcam ab131800) (protein, UniProt Q9H257 1-536)
# chain: MSDYENDDECWSVLEGFRVTLTSVIDPSRITPYLRQCKVLNPDDEEQVLSDPNLVIRKRKVGVLLDILQRTGHKGYVAFLESLELYYPQLYKKVTGKEPARVFSMIIDASGESGLTQLLMTEVMKLQKKVQDLTALLSSKDDFIKELRVKDSLLRKHQERVQRLKEECEAGSRELKRCKEENYDLAMRLAHQSEEKGAALMRNRDLQLEIDQLKHSLMKAEDDCKVERKHTLKLRHAMEQRPSQELLWELQQEKALLQARVQELEASVQEGKLDRSSPYIQVLEEDWRQALRDHQEQANTIFSLRKDLRQGEARRLRCMEEKEMFELQCLALRKDSKMYKDRIEAILLQMEEVAIERDQAIATREELHAQHARGLQEKDALRKQVRELGEKADELQLQVFQCEAQLLAVEGRLRRQQLETLVLSSDLEDGSPRRSQELSLPQDLEDTQLSDKGCLAGGGSPKQPFAALHQEQVLRNPHDAGLSSGEPPEKERRRLKESFENYRRKRALRKMQKGWRQGEEDRENTTGSDNTDTEGS
# Experiments:
# [1] = target: T1, STING (endogenous, BMDM) (mouse (endogenous in BMDM)); experiment: co-IP
# [2] = target: T2, MAVS (endogenous, BMDM) (mouse (endogenous in BMDM)); experiment: co-IP
# [3] = target: T3, TRIM41 (endogenous, BMDM) (mouse (endogenous in BMDM)); experiment: co-IP
# GST-TRIM41 (mouse) [4] = target: T4, GST-TRIM41 (mouse); experiment: pull-down; 1 μg GST or GST-TRIM41 coincubated with 1 μg recombinant CARD9, CARD11 or BCL10 for 1 h; sepharose 4B beads; Western blotting; both purified
# [5] = target: T5, Flag-tagged TRIM41 (full length) (mouse); experiment: co-IP; HEK293T transiently transfected with Flag-tagged TRIM41 (or mutants) and Myc-tagged BCL10 (or mutants) for 48 h; whole cell extracts immunoprecipitated with anti-Flag or anti-Myc Sepharose Beads; Western blotting
# GST-TRIM41 (mouse) [6] = target: T4, GST-TRIM41 (mouse); experiment: condition: 1 μg GST-TRIM41 with 1 μg recombinant CARD9; pull-down; 1 μg GST or GST-TRIM41 coincubated with 1 μg recombinant CARD9, CARD11 or BCL10 for 1 h; sepharose 4B beads; Western blotting; both purified
Binder,binding [1],binding [2],further results
B1,binds,binds,
B2,binds,binds,binding [3]: binds
B3,binds,binds,
B4,,,binding (GST-TRIM41 (mouse) [4]): binds
B5,,,binding [5]: binds
B6,,,binding (GST-TRIM41 (mouse) [6]): no binding
